# In publication PMC7819943, “Rice protein-binding microarrays: a tool to detect cis-acting elements near promoter regions in rice”:
# The chains behind the UniProt entries cited, without tags or fusion partners.
# UniProt Q0JBA9, entry or part of it: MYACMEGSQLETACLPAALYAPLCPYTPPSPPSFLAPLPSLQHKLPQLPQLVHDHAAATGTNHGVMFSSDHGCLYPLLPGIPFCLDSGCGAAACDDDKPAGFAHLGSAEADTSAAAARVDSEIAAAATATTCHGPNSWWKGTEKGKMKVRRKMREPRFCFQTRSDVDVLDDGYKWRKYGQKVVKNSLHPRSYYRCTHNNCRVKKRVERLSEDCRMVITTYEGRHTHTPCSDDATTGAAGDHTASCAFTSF
# The other results are listed elsewhere or left out.
# Target: OsWRKY34 (Oryza sativa, UniProt Q0JBA9 1-250)
# Assay: protein-binding microarray (RPBM); PBS, 2% BSA, 51.3 ng/ul salmon testes DNA, 50 uM zinc acetate, 200 nM TF, 25 C, 1 h; high values mean tight binding
# Conditions: protein: recombinant; tags: N-terminal polyhistidine and DsRed monomer fusion (pET32a); label: CyDye5-dUTP incorporated in the synthesized complementary strand; 3' TTTTT single-stranded linker to array surface; dsDNA, one strand shown
# In short: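 Per-feature fluorescence intensity (arbitrary units), read on an Axon 4000B scanner, is the binding signal. Transcription factors carrying an N-terminal polyhistidine tag and DsRed fusion were expressed in E. coli BL21-CodonPlus and purified on Ni–NTA. A custom Agilent array, made double-stranded by primer extension with Cy5-dUTP and blocked with 2% BSA, was incubated with 200 nM protein in PBS, 2% BSA, salmon testes DNA and 50 µM zinc acetate at 25 °C for 1 h and then washed.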
row,Sequence,binding signal
1,ACTTCACAGAGAACACTGTAGTTCGATTTTTTTTTACCACCGGAGTCACCTAGTGCAG,8630 fluorescence intensity (a.u.)
2,GTCCAATCAAACGGCCATTCCTGTATTTTTCCTATGTTTTCGGAGTCACCTAGTGCAG,11100 fluorescence intensity (a.u.)
3,GGTACGTTATTCGTGTTTGAGTCGGTTTTTAAGTTCATTCCGGAGTCACCTAGTGCAG,8180 fluorescence intensity (a.u.)
4,GCAACTCATGCATCATATCATGCCTCTCTCAACCTATTCACGGAGTCACCTAGTGCAG,9450 fluorescence intensity (a.u.)
5,ATTCTTTAGTTAAACTTTTTTTTTTTGCTTTTTCATGAATCGGAGTCACCTAGTGCAG,10300 fluorescence intensity (a.u.)
6,GAAGCTCTAAGATGGGCCGTTGACCAGATGGGGAAAAGTCCGGAGTCACCTAGTGCAG,10400 fluorescence intensity (a.u.)
7,TGGTGCTCGTCCGCTCGAATCACATCCGTTTTTCCCAATCCGGAGTCACCTAGTGCAG,8380 fluorescence intensity (a.u.)
8,GGGATTTTTTCTAACTCTCAGTTGATAATTTTGTCTTTTTCGGAGTCACCTAGTGCAG,8040 fluorescence intensity (a.u.)
9,GATTTCACGGGCCTCCTTCTCTTGTATATCCACAAACCCTCGGAGTCACCTAGTGCAG,9820 fluorescence intensity (a.u.)
10,TGACTGCCATTTTTGAAAATCGATCGGGGATGTTGTAAGTCGGAGTCACCTAGTGCAG,8590 fluorescence intensity (a.u.)
11,TCTTCCACAGTTCCACTCCTCCCTCACTCTCTCCCACAGTCGGAGTCACCTAGTGCAG,8660 fluorescence intensity (a.u.)
12,TAGTATGCATGCTTTTTTTTATTCTTTCTCACTACACACTCGGAGTCACCTAGTGCAG,8730 fluorescence intensity (a.u.)
13,GGGCGGTGGAGGCGGAGCTCCCCTGGCGGTGGGCGGTGGGCGGAGTCACCTAGTGCAG,10500 fluorescence intensity (a.u.)
14,CCAACTAAAGCCATACACACCACTGCTATCACTATACAACCGGAGTCACCTAGTGCAG,8750 fluorescence intensity (a.u.)
15,GGGGAGGGTTTCGTGCTCCTAGCCTCACCTTCCTCTCGACCGGAGTCACCTAGTGCAG,10000 fluorescence intensity (a.u.)
16,TATTAATACCTCATCTTGTCGTCTCGTATCATCTCATCTCCGGAGTCACCTAGTGCAG,12200 fluorescence intensity (a.u.)
17,GCCGCCGCCACCGCCACCGCCACCGCCCACCTCCGCCGCCCGGAGTCACCTAGTGCAG,9520 fluorescence intensity (a.u.)
18,TTCGCTTTTTTGCTCTTCAGTTCAATCATGTTCCTTAGTTCGGAGTCACCTAGTGCAG,8070 fluorescence intensity (a.u.)
19,ACAATCAGTGGGGAGGGAAGGGCCCCTTATTTATTCGCATCGGAGTCACCTAGTGCAG,8200 fluorescence intensity (a.u.)
20,ACCCACCATCAATCAGCTCTCACACAAGCCCAATACGGCACGGAGTCACCTAGTGCAG,8410 fluorescence intensity (a.u.)
21,GTTTTGTGATAATTTGGTATTTTTTGTGAAATTTACTTTACGGAGTCACCTAGTGCAG,9010 fluorescence intensity (a.u.)

# Part of the list above, tab-delimited:
row	Sequence	binding signal
1	ACTTCACAGAGAACACTGTAGTTCGATTTTTTTTTACCACCGGAGTCACCTAGTGCAG	8630 fluorescence intensity (a.u.)
11	TCTTCCACAGTTCCACTCCTCCCTCACTCTCTCCCACAGTCGGAGTCACCTAGTGCAG	8660 fluorescence intensity (a.u.)
17	GCCGCCGCCACCGCCACCGCCACCGCCCACCTCCGCCGCCCGGAGTCACCTAGTGCAG	9520 fluorescence intensity (a.u.)

# (next part)

row,Sequence,binding signal
1,TTCCCACATTTTCCTTGGTTGGCACTTAGCACCATATGTTCGGAGTCACCTAGTGCAG,8350 fluorescence intensity (a.u.)
2,CTTTACTTACTTTGGTGCACATGCATGCAGATTCTGTAAACGGAGTCACCTAGTGCAG,8230 fluorescence intensity (a.u.)
3,TGCGATTACACCCTTGCTTAAGCCTTGTATTACCTGTCAGCGGAGTCACCTAGTGCAG,12300 fluorescence intensity (a.u.)
4,CTGTTTGCAATTTGCAATGAGGTGTCAACTACCTCATTCTCGGAGTCACCTAGTGCAG,8650 fluorescence intensity (a.u.)
5,TTCTTTCCAAATCCCCATCGCTTTCTTCTCCTCCTTTTTTCGGAGTCACCTAGTGCAG,8090 fluorescence intensity (a.u.)
6,TGGCGGGCTTGGTGGTGGAGGTGGCAAGGAAGGAGGATTTCGGAGTCACCTAGTGCAG,8470 fluorescence intensity (a.u.)
7,AACGTTTGATTTTTCATTTCTCTTATTACTGACTTATTTACGGAGTCACCTAGTGCAG,9850 fluorescence intensity (a.u.)
8,CAGTCTGTTAATACTTGTTGTTTCTTATGTTATAGCGACACGGAGTCACCTAGTGCAG,11100 fluorescence intensity (a.u.)
9,AATATATCACAAGCGACTATGATGATCAGTTTGTCCAATCCGGAGTCACCTAGTGCAG,8030 fluorescence intensity (a.u.)
10,CATTTTTTCTGTATTCCATGCTACAATGAGTCCCGTGGTGCGGAGTCACCTAGTGCAG,9640 fluorescence intensity (a.u.)
11,GGGATTGGGTAACTTTTCAGGGGCACACAAGGAATTTACTCGGAGTCACCTAGTGCAG,8240 fluorescence intensity (a.u.)
12,GACGGTCACTGCACCTGAATATGATTGTTTTTTTTTTTTTCGGAGTCACCTAGTGCAG,11100 fluorescence intensity (a.u.)
13,CCCCTCAACTTGTTTCCGGTTACTTCTTTCTCCTCATTTACGGAGTCACCTAGTGCAG,9260 fluorescence intensity (a.u.)
14,GTTGCTGGTGATGAGCTTCACTTTCTTGGATTGATTTTTTCGGAGTCACCTAGTGCAG,8800 fluorescence intensity (a.u.)
15,GACTTTTCACGTAACGTTTGACCATTTATCTTATTTATAACGGAGTCACCTAGTGCAG,9970 fluorescence intensity (a.u.)
16,ACTTTATTGCGCCCTCCACACCATTCCGTCCGTTTTTGGTCGGAGTCACCTAGTGCAG,8950 fluorescence intensity (a.u.)
17,GTTGTAGTTGCTGGTTTGCTTGCTAGCTTCGTCGTCTCCTCGGAGTCACCTAGTGCAG,11000 fluorescence intensity (a.u.)
18,ACTTGTTTTACGTTCGGCTAATTAGCTGTTTGACCGTTTCCGGAGTCACCTAGTGCAG,15300 fluorescence intensity (a.u.)
19,ATATCACCTCACATAAACACACTGGATCGCTGTTTCCTCCCGGAGTCACCTAGTGCAG,8580 fluorescence intensity (a.u.)
20,GAGAATCCCGCGCCCGCCCGCCCGCATCACCGCCGGATGGCGGAGTCACCTAGTGCAG,9180 fluorescence intensity (a.u.)
21,TTAAACTCTCCGTCTCATTGTTGTTTACATGTCGTCTAAACGGAGTCACCTAGTGCAG,11100 fluorescence intensity (a.u.)
